No constants are given. Whether binding was seen depends on the method and setting. Some results given as binding are weak or reduced against the parent protein; the word gives no strength.

Drawing on paper PMC11348030, “mTORC1 phosphorylates and stabilizes LST2 to negatively regulate EGFR” (Proceedings of the National Academy of Sciences of the …, 2024), this text covers binding for 4 molecules.

Test [1] has as its target T1, regulatory-associated protein of mTOR (RAPTOR) (UniProt Q8N122 1-1335).
T1 construct: RAPTOR, regulatory-associated protein of mTOR; purified protein; Construct, host and tags are in SI Appendix, Material and Methods; In the cryo-EM rows RAPTOR stood as a subunit of mTORC1; source: purified
Briefly: cryo-EM structure; single-particle analysis of mTORC1 in complex with full-length LST2; overall refinement 4.02 Å; both purified.

The target of test [2] is T1, regulatory-associated protein of mTOR …. Briefly: co-IP; coimmunoprecipitation with purified RAPTOR and purified full-length LST2 (WT or F401A); blot quantified, N = 3; both purified.
Test [3] shares this target. The experiment in a line: fluorescence polarisation; fluorescence anisotropy, competition: unlabeled TOS peptide against FITC-labeled peptide for RAPTOR; both purified.
Test [4] shares this target. The experiment in a line: cryo-EM structure; single-particle analysis of mTORC1 in complex with the synthetic LST2 TOS peptide; 3.27 Å for the TOS-binding RAPTOR region; both purified.
Test [5] has the same target. Briefly: fluorescence polarisation; fluorescence anisotropy; purified RAPTOR with N-terminally FITC-labeled synthetic LST2 TOS peptides; N = 3; both purified.

B1: full-length LST2 (lateral signal target 2 homolog), wild type (protein, UniProt Q9HCC9 1-887)
chain: MMNRFRKWLYKPKRSDPQLLARFYYADEELNQVAAELDSLDGRKDPQRCTLLVSQFRSCQDNVLNIINQIMDECIPQDRAPRDFCVKFPEEIRHDNLAGQLWFGAECLAAGSIIMNRELESMAMRPLAKELTRSLEDVRGALRDQALRDLNTYTEKMREALRHFDVLFAEFELSYVSAMVPVKSPREYYVQQEVIVLFCETVERALDFGYLTQDMIDDYEPALMFSIPRLAIVCGLVVYADGPLNLDRKVEDMSELFRPFHTLLRKIRDLLQTLTEEELHTLERNLCISQDVEFPIRADVQGPAALAPALSAPLPPEGPLSAKAKDPDAELACSMQYDDQELEQLSRMVHRAGDEMSSLLSPPIACQSPAHRPGAEGSPGGEASPGRPRLRSGSDEEERVFFMDDVEGTAEALARPESPAGPFGWAGSTWADPQEKGQGGPGGAAGISLPASEKEEDLSNNNLEAEGTDGASLAGTSSCSCLDSRLHLDGWEVGADDAETAEMIAHRTGGMKLSATVIFNPKSPTSLDSAVATQEAASEPVAEGMDGGPHKLSTGATNCLLHSCVCCGSCGDSREDVVERLREKCSPGGVIGASYAAGLAKASDRAPERQEEAPPPSEDASNGREPKAPTSDKCLPHTSGSQVDTASGLQGEAGVAGQQEPEARELHAGSPSAHEAPQALSGSSSSTAGSCSSDKMGPEAAPAATHAAPQATREKIRSRFHGSHDLIHRLFVCISGVADQLQTNYASDLRSILKTLFEVMATKPETDDKEKLRKVTQTLRSAALEDCALCQETLSSSELAAKTRDGDFEDPPEWVPDEACGFCTACKAPFTVIRRKHHCRSCGKIFCSRCSSHSAPLPRYGQVKPVRVCTHCYMFHVTPFYSDKAGL
Consider B1, for which the binding result in test [1] and in test [2] was “binds” each time.
With DEEERVFFMDDVE (peptide, UniProt Q9HCC9 395-407) [unlabeled LST2 TOS peptide], the binding entry in test [3] and in test [4] was “binds” throughout.
For the molecule DEEERVFFMDDVE (peptide, UniProt Q9HCC9 395-407, FITC on the N-terminus) [FITC-labeled LST2 TOS peptide including flanking residues (amino acids 395 to 407)], the binding entry in test [3] is “binds”.
In the case of DEEERVAFMDDVE (peptide, UniProt Q9HCC9 395-407, FITC on the N-terminus) [FITC-labeled LST2 TOS peptide F401A], the binding entry in test [5] is “no binding”.
